The test system of the experiment is LDLRKO mice. Put plainly: Cholestyramine, atorvastatin and GH alone and in combination: plasma cholesterol and triglycerides. Format: in vivo. Particulars: 6 days of treatment. From the text:
The studies were approved by the Institutional Animal Care and Use Committee, Sweden. Altogether 75 male LDLRKO and 45 C57 BL/6J mice were purchased from Bommice, Denmark. Animals were housed under standardized conditions in groups of ten. The mice had free access to water and chow; the light cycle hours were between 6 a.m. and 6:00 p.m. At the start of the experiment, osmotic mini pumps containing GH were implanted subcutaneously under light ether anesthesia. Non-GH treated animals were sham-operated. Recombinant human GH (Genotropin®), purchased from Pharmacia & Upjohn, was infused at a rate of 1.0 mg/kg per day. After six days of infusion, animals where anesthetized with ether, and blood was collected from the eye. The mice where thereafter killed by cervical dislocation. The livers were immediately removed and when indicated, 1 g of liver was taken for subsequent preparation of microsomes for assay of enzyme activity as described below. The remaining liver was immediately frozen in liquid nitrogen and stored at −70° C.
In the experiment comparing the effects of cholestyramine, atorvastatin, GH, and combinations thereof, animals were bled from the eye under light ether anesthesia and were not killed. […]
The total hepatic cholesterol was determined, following extraction and subsequent drying under nitrogen from liver samples, as described (Rudling M. J. Lipid Res. 33: 493-50 1992). […]

`CC(C)c1c(C(=O)Nc2ccccc2)c(-c2ccccc2)c(-c2ccc(F)cc2)n1CC[C@@H](O)C[C@@H](O)CC(=O)O` [atorvastatin]: the “effect on plasma cholesterol (in words)” value (drug alone) was “no effects”. Besides, the “reduction of plasma triglycerides” value (groups of 5) is recorded as “approx. 20%”.

The values are drawn from patent US6559289B1, “Use of growth hormone or analogues thereof for the treatment of mammals with familial hypercholesterolemia” (Salhtech I Goteborg AB, priority 1998, dated 2003).
